Some of the results follow. Values are raw readings; no control value is given beside them.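 In the initial screen, polymyxin B was used at a concentration that permeabilizes Salmonella's outer membrane but not its inner membrane. Maximum growth was set by DMSO wells with or without polymyxin B. Since plates varied, data were ranked per plate, and compounds giving the lowest OD600 advanced as hits.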
Test system: Salmonella enterica serovar Typhimurium SL1344
Experiment: bacterial growth OD600 after 18 h with compound and polymyxin B; higher = more bacterial growth (less inhibition)
Settings: 50 µM, Mueller-Hinton broth

**Q.** For `COc1ccc(CNC(=O)CCC2CCCN(C(=O)Cc3cccs3)C2)c(OC)c1` (configuration not stated), which “bacterial growth OD600” value (polymyxin B 0.75 µg/mL) is on record?
**A.** The value was 0.812.

**Q.** `Cc1cc(C)n(CC(=O)N2CCc3onc(-c4ccc(F)c(F)c4)c3C2)n1` was tested. Which “bacterial growth OD600” value (polymyxin B 0.75 µg/mL) did it give?
**A.** The value was 0.895.

**Q.** `O=C(CC(c1cccc(O)c1)c1ccccc1Cl)N1CCC(O)CC1` (configuration not stated) was tested. Which “bacterial growth OD600” value (polymyxin B 1 µg/mL) did it give?
**A.** Its value is 0.797.

**Q.** How did the “bacterial growth OD600” value (polymyxin B 0.75 µg/mL) turn out when `Cc1[nH]c2ccccc2c1CC(=O)NCCN1Cc2ccccc2OC(c2ccsc2)C1` (configuration not stated) was run?
**A.** Its value is 0.632.

**Q.** Which “bacterial growth OD600” value (polymyxin B 0.75 µg/mL) does the source give for `O=C(C1CC1)N1CCCC(CCc2ccccc2)C1` (configuration not stated) here?
**A.** The value was 0.678.

**Q.** For `CSc1ccccc1C(=O)NCC1Cc2cc(-c3ccccc3C(C)=O)ccc2O1` (configuration not stated), which “bacterial growth OD600” value (polymyxin B 0.75 µg/mL) is on record?
**A.** The value was 0.003.

**Q.** How did the “bacterial growth OD600” value (polymyxin B 1 µg/mL) turn out when `CC(C)n1cc(CN2CCCC2C(=O)Nc2cccc(-n3cccn3)c2)cn1` (configuration not stated) was run?
**A.** Its value is 0.982.

**Q.** `COc1cccc(CCC2CCCN(Cc3cnn(C)c3C)C2)c1` (configuration not stated) was tested. Which “bacterial growth OD600” value (polymyxin B 0.75 µg/mL) did it give?
**A.** Its value is 0.872.

**Q.** With `COCCN1CCN(C(=O)CN2Cc3cc(C)ccc3OC(c3ccsc3)C2)CC1` (configuration not stated) as the compound, how does the “bacterial growth OD600” value (polymyxin B 0.75 µg/mL) read?
**A.** Its value is 0.851.

**Q.** How did the “bacterial growth OD600” value (polymyxin B 0.75 µg/mL) turn out when `O=C(CCN1Cc2ccccc2OC(c2ccccc2F)C1)NC(c1ccccc1)c1ccncc1` (configuration not stated) was run?
**A.** The value was 0.013.

**Q.** How did the “bacterial growth OD600” value (polymyxin B 0.75 µg/mL) turn out when `CCc1nc(C)c(CNC(C)c2cnc(N(C)C3CCCCC3)nc2C)[nH]1` (configuration not stated) was run?
**A.** Its value is 0.02.

**Q.** For `C=CCCC(=O)N1CCC2(CCCN(Cc3ccc(F)cc3)C2=O)C1` (configuration not stated), which “bacterial growth OD600” value (polymyxin B 1 µg/mL) is on record?
**A.** The value was 1.01.

**Q.** `Cc1cccc(C)c1Oc1ncccc1CNC1CCSCC1` was tested. Which “bacterial growth OD600” value (polymyxin B 1 µg/mL) did it give?
**A.** Its value is 0.828.

**Q.** How did the “bacterial growth OD600” value (polymyxin B 1 µg/mL) turn out when `COc1ccc(CN2CCN(Cc3csc(C(C)=O)c3)CC2CCO)c(C)c1C` (configuration not stated) was run?
**A.** Its value is 0.81.

**Q.** How did the “bacterial growth OD600” value (polymyxin B 1 µg/mL) turn out when `O=C1CCC(C(=O)N2CCC(Cn3cccn3)CC2)CN1Cc1cccc(C(F)(F)F)c1` (configuration not stated) was run?
**A.** The value was 0.865.

**Q.** Which “bacterial growth OD600” value (polymyxin B 0.75 µg/mL) does the source give for `COc1cc(=O)n2c(c1C(=O)NCc1cccc(F)c1)CCN(Cc1ccc(NC(C)=O)cc1)CC2` here?
**A.** Its value is 0.876.

**Q.** With `CN(C)C1CCN(C(=O)c2cn(C(c3ccccc3)c3ccccc3)nn2)C1` (configuration not stated) as the compound, how does the “bacterial growth OD600” value (polymyxin B 1 µg/mL) read?
**A.** The value was 0.831.

**Q.** With `CCN1CCN(C(=O)CCC2CCN(C(C)Cn3nc(C)cc3C)CC2)CC1` (configuration not stated) as the compound, how does the “bacterial growth OD600” value (polymyxin B 1 µg/mL) read?
**A.** Its value is 1.06.

**Q.** `COc1ccc(C(=O)N2CCCC(C(=O)c3ccc(Cl)cc3C)C2)c(OC)c1OC` (configuration not stated) was tested. Which “bacterial growth OD600” value (polymyxin B 1 µg/mL) did it give?
**A.** The value was 0.666.

**Q.** How did the “bacterial growth OD600” value (polymyxin B 1 µg/mL) turn out when `CCOC(=O)N1CCN(Cc2nc(-c3cccc(F)c3)oc2C)CC1` was run?
**A.** The value was 0.786.

**Q.** For `O=C(c1coc(COc2ccc(F)cc2Cl)n1)N1CCCC1`, which “bacterial growth OD600” value (polymyxin B 1 µg/mL) is on record?
**A.** Its value is 0.809.

**Q.** For `C#CCN(CC=C)C(=O)C1CCC(=O)N(CC2CCCCC2)C1` (configuration not stated), which “bacterial growth OD600” value (polymyxin B 1 µg/mL) is on record?
**A.** The value was 0.915.

**Q.** Which “bacterial growth OD600” value (polymyxin B 0.75 µg/mL) does the source give for `Cc1csc(SCC(=O)NCC2Cc3cc(F)cc(-c4cccnc4)c3O2)n1` (configuration not stated) here?
**A.** Its value is 0.898.

**Q.** `CN(C)C1CCN(C(=O)c2cccc(OC3CCN(C(=O)C4CC4)CC3)c2)C1` (configuration not stated) was tested. Which “bacterial growth OD600” value (polymyxin B 1 µg/mL) did it give?
**A.** Its value is 1.08.

**Q.** Which “bacterial growth OD600” value (polymyxin B 0.75 µg/mL) does the source give for `O=C(CC1(c2cccc(F)c2)CC(=O)N(C2CCCC2)C1=O)N1CCN(c2ccccc2)C(=O)C1` (configuration not stated) here?
**A.** Its value is 0.963.

**Q.** Which “bacterial growth OD600” value (polymyxin B 1 µg/mL) does the source give for `COc1ccc(CN2CCCC(CNC(=O)c3cccs3)C2)c(F)c1` (configuration not stated) here?
**A.** The value was 0.931.

**Q.** How did the “bacterial growth OD600” value (polymyxin B 0.75 µg/mL) turn out when `CCNC(=O)c1cn(CC(C)C)cc(C(=O)NCc2cccc(F)c2)c1=O` was run?
**A.** The value was 0.678.

**Q.** Which “bacterial growth OD600” value (polymyxin B 1 µg/mL) does the source give for `COc1c(C)cc(C(=O)C2CCCN(Cc3nc4ccccc4[nH]3)C2)cc1C` (configuration not stated) here?
**A.** Its value is 0.58.

**Q.** Which “bacterial growth OD600” value (polymyxin B 1 µg/mL) does the source give for `O[C@@H]1CN(C2Cc3ccccc3C2)CC[C@H]1N1CCN(c2ccccn2)CC1` here?
**A.** Its value is 0.898.

**Q.** With `C=CCCC(=O)NC1CC(=O)N(CCc2ccc(F)cc2)C1` (configuration not stated) as the compound, how does the “bacterial growth OD600” value (polymyxin B 1 µg/mL) read?
**A.** Its value is 1.01.

**Q.** `COc1ccccc1CCN1CCCC(CN(C)C(=O)Cn2cnc3ccccc3c2=O)C1` (configuration not stated) was tested. Which “bacterial growth OD600” value (polymyxin B 1 µg/mL) did it give?
**A.** The value was 0.942.

**Q.** `COC(=O)CNC(=O)Cc1c2c(n(Cc3ccccc3F)c1C)CCCC2=O` was tested. Which “bacterial growth OD600” value (polymyxin B 1 µg/mL) did it give?
**A.** The value was 1.12.
